Results: PubChem BioAssay AID330 (DTP/NCI, 2004)
The list does not hold the whole screen: it gathers tests that were run many times, whatever their T/C, doses with no T/C, and many T/C values between a quarter and a half above the control. Further doses and runs are listed elsewhere. T/C: endpoint of the treated group in % of that of the vehicle group. Some entries give survivors of the animals treated and no T/C: the source holds a T/C of zero for them, seemingly a mark for toxic or unscored doses. Some doses without a T/C left all or most animals alive at the check, yet need not have been tolerated: survival well below the control is almost never listed, so the zero probably covers shortened survival too. Survivors were counted at the toxicity check, usually on the fifth day, unless a day is given; later deaths do not show. Schedule codes are those of the source, taken here to give the interval after Q, in days (D) or hours (H), and the number of doses after X. Some entries were tested several times; the results are listed from low to high. For survival time, this PubChem deposit counts one and a half times the control or more as active, and values a quarter to a half above the control carry no call in these data; other NCI protocols may use other cut-offs. Some T/C values are followed by the survivors on the day toxicity was checked, most often the fifth; without a count, all were alive then.

Tested on: P388 leukemia ip, CD2F1 mice, survival T/C
Experiment: NCI In Vivo Anticancer Drug Screen. Data for tumor model P388 Leukemia (intraperitoneal) in CD2F1 (CDF1) mice
Conditions: T/C endpoint: median survival time, higher T/C = longer survival
[1] = dose: 100.0 mg/kg/injection, schedule: Q01DX005 (ip), vehicle: Klucel (hydroxypropylcellulose) (HPC)
[2] = dose: 50.0 mg/kg/injection, schedule: Q01DX009 (ip), vehicle: saline with Tween-80
[3] = dose: 200.0 mg/kg/injection, schedule: Q01DX009 (ip), vehicle: saline with Tween-80
[4] = dose: 200.0 mg/kg/injection, schedule: Q01DX005 (ip), vehicle: saline with Tween-80
[5] = dose: 200.0 mg/kg/injection, schedule: Q04DX003 (ip), vehicle: saline with Tween-80
[6] = dose: 240.0 mg/kg/injection, schedule: Q01DX005 (ip), vehicle: Klucel (hydroxypropylcellulose) (HPC)
[7] = dose: 12.5 mg/kg/injection, schedule: Q01DX005 (ip), vehicle: saline with Tween-80
[8] = dose: 25.0 mg/kg/injection, schedule: Q01DX005 (ip), vehicle: saline with Tween-80
[9] = dose: 50.0 mg/kg/injection, schedule: Q01DX005 (ip), vehicle: saline with Tween-80
[10] = dose: 100.0 mg/kg/injection, schedule: Q01DX005 (ip), vehicle: saline with Tween-80
[11] = dose: 100.0 mg/kg/injection, schedule: Q01DX009 (ip), vehicle: saline with Tween-80
[12] = dose: 100.0 mg/kg/injection, schedule: Q01DX001 (ip), vehicle: Klucel (hydroxypropylcellulose) (HPC)
[13] = dose: 200.0 mg/kg/injection, schedule: Q01DX001 (ip), vehicle: Klucel (hydroxypropylcellulose) (HPC)
[14] = dose: 400.0 mg/kg/injection, schedule: Q01DX001 (ip), vehicle: Klucel (hydroxypropylcellulose) (HPC)
[15] = dose: 200.0 mg/kg/injection, schedule: Q01DX005 (ip), vehicle: Klucel (hydroxypropylcellulose) (HPC)
[16] = dose: 400.0 mg/kg/injection, schedule: Q01DX009 (ip), vehicle: Klucel (hydroxypropylcellulose) (HPC)
[17] = dose: 400.0 mg/kg/injection, schedule: Q04DX002 (ip), vehicle: saline with Tween-80
[18] = dose: 240.0 mg/kg/injection, schedule: Q01DX005 (ip), vehicle: saline with Tween-80

In the case of CN(C)N=Nc1ccc(C(=O)NC(Cc2ccccc2)C(=O)O)cc1 (stereo not given), the survivor count [1] is reported as 6 of 6.

With CC(C)CC[NH-].CC(C)CC[NH-].[Cl][Pt+2]([Cl])([Cl])[Cl] the T/C (dose: 12.5 mg/kg/injection, schedule: Q01DX009 (ip), vehicle: saline with Tween-80) was 128 % of control, the T/C (dose: 25.0 mg/kg/injection, schedule: Q01DX009 (ip), vehicle: saline with Tween-80) was 146 % of control and the T/C [2] was 146 % of control. For the same compound, the survivor count [3] was 3 of 3.

With O=C1N=NC2=C1c1c3ccccc3c(O)n1CC2 the survivor count [4] was 6 of 6.

In the case of COC(/C=N/OC(=O)c1ccc([N+](=O)[O-])cc1)c1ccccc1 (stereo not given), the survivor count (dose: 100.0 mg/kg/injection, schedule: Q04DX003 (ip), vehicle: saline with Tween-80) is reported as 2 of 6 and 4 of 6, the survivor count [5] is reported as 0 of 6 and 4 of 6 and the survivor count (dose: 400.0 mg/kg/injection, schedule: Q04DX003 (ip), vehicle: saline with Tween-80) is reported as 0 of 6 and 3 of 6.

CCOC(=O)C(C(=O)OCC)=S1c2ccccc2Sc2ccccc21 was tested, and the survivor count [6] was 5 of 6.

CC(C)N=C(NC(C)C)c1ccc(NC(=O)Nc2ccc(NC(=O)Nc3ccc(C(=NC(C)C)NC(C)C)cc3)cc2)cc1 was tested, and the T/C (dose: 6.25 mg/kg/injection, schedule: Q01DX005 (ip), vehicle: saline with Tween-80) was 125 % of control, the T/C [7] was 141 % of control and the survivor count [7] was 6 of 6. For the same compound, the survivor count [8] was 1 of 6, the survivor count [9] was 0 of 6 and the survivor count [10] was 0 of 6. The survivor count [4] was 0 of 6.

Cc1ccc(C(=O)NNC(O)C(F)(F)F)cc1 (stereo not given) was tested, and the survivor count (dose: 400.0 mg/kg/injection, schedule: Q04DX003 (ip), vehicle: Klucel (hydroxypropylcellulose) (HPC)) was 5 of 6.

For N#CC(=C1C=CC(=NO)C=C1)c1ccccc1, the T/C [2] was 125 % of control and the T/C [11] was 125 % of control.

In the case of Cc1ccccc1OC(=O)Nc1ccc(C(=O)O)c(O)c1, the survivor count (dose: 400.0 mg/kg/injection, schedule: Q01DX001 (ip), vehicle: saline with Tween-80) is reported as 2 of 6.

For CNC(=O)OCc1c(-c2ccccc2)nc2n1CCS2, the survivor count [12] was 0 of 6, the survivor count [13] was 0 of 6 and the survivor count [14] was 0 of 6.

For CC(=O)c1c(O)c2cccc3c2n(c1=O)CCC3, the survivor count [6] was 0 of 6.

In the case of O=C(NCCCl)Oc1cc(Cl)c(Cl)cc1Cl, the T/C (dose: 25.0 mg/kg/injection, schedule: Q01DX005 (ip), vehicle: Klucel (hydroxypropylcellulose) (HPC)) is reported as 127 and 128 % of control, the T/C (dose: 50.0 mg/kg/injection, schedule: Q01DX005 (ip), vehicle: Klucel (hydroxypropylcellulose) (HPC)) is reported as 116, 120 [5 of 6 alive], 126, 135 % of control and the T/C [1] is reported as 126 % of control [5 of 6 alive]. For the same compound, the survivor count [1] was 4 of 6, the survivor count [13] was 3 of 6 and the survivor count [15] was 0 of 6.

For O=C(O)N1CCc2c(sc3ccccc23)C1, the survivor count [12] was 1 of 6 and 3 of 6, the survivor count [13] was 0 of 6 and the survivor count [14] was 0 of 6.

In the case of NC(=O)C(Br)(Br)C(=O)c1nc(N)nc(N)n1, the survivor count [4] is reported as 0 of 6.

NCC(=O)c1ccc2oc3ccccc3c2c1 was tested, and the survivor count [16] was 0 of 6.

In the case of O=C(CCN1CCC23c4c5ccc(O)c4OC2C(O)C=CC3C1C5)c1ccccc1 (stereo not given), the survivor count [15] is reported as 0 of 5.

For C1CCN(CN2CCCCC2)CC1, the survivor count (dose: 200.0 mg/kg/injection, schedule: Q01DX009 (ip), vehicle: saline) was 0 of 6.

With CC(Cl)C(=O)N/N=C(/c1ccccc1)C(C)(C)C (stereo not given) the survivor count [3] was 3 of 6.

With O=C(NNC(=O)C(Cl)Cl)c1ccccn1 the survivor count [16] was 0 of 6.

For Cc1ccc(C2(C)OC(CCl)CS2)c(C)c1 (stereo not given), the T/C [11] was 129 % of control.

In the case of COc1ccc(Cc2cc3c(cc2OCC(=O)Nc2ccccn2)OCO3)cc1, the survivor count [9] is reported as 6 of 6.

With CCCC(C)(C(=O)Nc1ccc2nc(C)cc(N)c2c1)C(=O)Nc1ccc2nc(C)cc(N)c2c1 the survivor count [4] was 3 of 5.

For O=C(ON1C(=O)CCC1=O)C1CCC(CN2C(=O)C=CC2=O)CC1 (stereo not given), the survivor count (dose: 200.0 mg/kg/injection, schedule: Q04DX002 (ip), vehicle: saline with Tween-80) was 1 of 5 and the survivor count [17] was 0 of 5.

For CC12Cc3cnoc3C=C1CCC1C2CCC2(C)C1CCC2(C)O (stereo not given), the survivor count [4] was 6 of 6.

C/C(=N\NC(=S)N1CC2CCC(CC2)C1)c1nccs1 was tested, and the T/C [8] was 132 % of control, the T/C [9] was 134 % of control and the survivor count [10] was 4 of 6 and 6 of 6. The survivor count [4] was 1 of 6.

For N#CC1=C(C#N)C(=O)c2ccccc2C1=O, the survivor count [11] was 3 of 6.

In the case of N#CCC[P+](CCC#N)(CCC#N)CCN1C(=O)c2ccccc2C1=O, the survivor count (dose: 400.0 mg/kg/injection, schedule: Q01DX009 (ip), vehicle: water) is reported as 2 of 6.

With CCN(CC)CCNC(=O)c1ccc2c(c1O)C(=O)c1ccccc1C2=O the survivor count [4] was 0 of 5.

For CCC[CH2][Sn]([CH2]CCC)([S]/C(C#N)=N/N=C/c1ccc(N(C)C)cc1)[S]/C(C#N)=N/N=C/c1ccc(N(C)C)cc1, the survivor count (dose: 15.0 mg/kg/injection, schedule: Q01DX005 (ip), vehicle: saline with Tween-80) was 4 of 6, the survivor count (dose: 30.0 mg/kg/injection, schedule: Q01DX005 (ip), vehicle: saline with Tween-80) was 0 of 6 and the survivor count (dose: 60.0 mg/kg/injection, schedule: Q01DX005 (ip), vehicle: saline with Tween-80) was 2 of 6. For the same compound, the survivor count (dose: 120.0 mg/kg/injection, schedule: Q01DX005 (ip), vehicle: saline with Tween-80) was 0 of 6 and the survivor count [18] was 0 of 6.

In the case of C[n+]1ccc(Nc2ccc(NC(=O)c3ccc(Nc4cc[n+](C)c5ccc(N)cc45)cc3N)cc2)cc1, the T/C (dose: 0.4 mg/kg/injection, schedule: Q01DX009 (ip), vehicle: saline with Tween-80) is reported as 135 % of control, the T/C (dose: 0.44 mg/kg/injection, schedule: Q01DX009 (ip), vehicle: saline with Tween-80) is reported as 130 % of control and the T/C (dose: 0.6 mg/kg/injection, schedule: Q01DX009 (ip), vehicle: saline with Tween-80) is reported as 136 % of control. For the same compound, the T/C (dose: 0.66 mg/kg/injection, schedule: Q01DX009 (ip), vehicle: saline with Tween-80) was 127 % of control, the T/C (dose: 2.2 mg/kg/injection, schedule: Q04DX003 (ip), vehicle: saline with Tween-80) was 136 % of control and the T/C (dose: 3.3 mg/kg/injection, schedule: Q04DX003 (ip), vehicle: saline with Tween-80) was 145 % of control.

CCCCOc1cccc2c1C(=O)c1c(O)c3c(c(O)c1C2=O)C[C@@](O)(C(C)=O)C[C@@H]3OC1CC(N)C(O)C(C)O1 (stereo not given in full) was tested, and the T/C (dose: 12.5 mg/kg/injection, schedule: Q04DX003 (ip), vehicle: water) was 126 % of control [5 of 6 alive on day 9], the T/C (dose: 25.0 mg/kg/injection, schedule: Q04DX003 (ip), vehicle: water, evaluated on day 30) was 141 % of control [5 of 6 alive] and the T/C (dose: 25.0 mg/kg/injection, schedule: Q04DX003 (ip), vehicle: water, evaluated on day 45) was 137 % of control.

For CN(C)CC(C)(CN(C)C)C(=O)/C=C/c1c(Cl)cccc1Cl, the survivor count [18] was 1 of 6.

CCCCCCCCCC1=C(C#N)C(=O)OCCN1C was tested, and the survivor count [18] was 6 of 6.

With COC(=O)c1nc(N)nc(C(=O)OC)c1C(=O)/C=C/c1ccccc1 the survivor count [18] was 0 of 6.

For C=C1C(=O)OC2/C=C(\C)CC/C=C(/CO)C(OC(=O)C(C)(C)O)C(OC(=O)C(C)C)C12 (stereo not given), the survivor count (dose: 10.0 mg/kg/injection, schedule: Q01DX009 (ip), vehicle: other) was 3 of 6 and the T/C (dose: 20.0 mg/kg/injection, schedule: Q01DX009 (ip), vehicle: other) was 136 % of control [5 of 6 alive].

With N#CCN(CNC(=O)c1ccccc1)N=O the survivor count [17] was 2 of 6.

With CN(N=O)C(=O)Nc1c[nH]c(=O)[nH]c1=O the survivor count (dose: 100.0 mg/kg/injection, schedule: Q01DX009 (ip), vehicle: saline sonified) was 5 of 6 and the survivor count [5] was 4 of 6.
